Results on one substance are retold here after paper PMC6943233, “Disorder‐to‐order transition in PE–PPE proteins of Mycobacterium tuberculosis augments the pro‐pathogen immune response” (FEBS Open Bio, 2019).

The chains behind the UniProt entries cited, without tags or fusion partners.
UniProt I6YGS7: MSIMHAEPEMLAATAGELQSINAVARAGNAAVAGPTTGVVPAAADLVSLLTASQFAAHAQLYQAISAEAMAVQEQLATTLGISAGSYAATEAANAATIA

No constants are given. Whether binding was seen depends on the method and setting. Some results given as binding are weak or reduced against the parent protein; the word gives no strength. Where a sequence is shown, tags or fusion partners need not be part of it.

In test [1] the target is T1, PPE65 (Mycobacterium tuberculosis) (UniProt P9WHX2).
T1 sequence: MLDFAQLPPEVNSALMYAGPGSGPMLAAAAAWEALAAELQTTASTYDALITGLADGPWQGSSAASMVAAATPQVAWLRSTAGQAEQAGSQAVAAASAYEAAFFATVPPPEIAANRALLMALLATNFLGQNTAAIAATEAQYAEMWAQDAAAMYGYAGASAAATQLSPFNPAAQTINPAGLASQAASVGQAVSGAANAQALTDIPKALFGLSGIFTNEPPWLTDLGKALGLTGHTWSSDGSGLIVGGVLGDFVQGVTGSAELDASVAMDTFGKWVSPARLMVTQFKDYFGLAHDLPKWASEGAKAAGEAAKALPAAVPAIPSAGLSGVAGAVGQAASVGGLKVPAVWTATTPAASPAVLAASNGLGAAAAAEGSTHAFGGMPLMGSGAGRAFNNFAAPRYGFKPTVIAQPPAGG
As to the kind of experiment: other fluorescence titration; intrinsic fluorescence of the PPE protein (10 μg) with the tryptophan-free PE protein added (10 and 30 μg); excitation 280 nm, emission 300-340 nm, 25 ± 0.1 °C; both purified.

Test [2] has as its target T1, PPE65 (Mycobacterium tuberculosis). The experiment in a line: FTIR spectroscopy; both proteins mixed in equal amount in 1× PBS and incubated for 1 h at 4 °C; ATR-FTIR of the liquid sample at room temperature; secondary structure of the mixture compared with the single proteins; both purified.

In the case of PE32 (from UniProt I6YGS7 1-99), the binding entry in test [1] and in test [2] was “binds” in each case.
